From paper PMC2993708
These are yes or no findings as the source states them, for the method shown. In cells and extracts the contact can be indirect. A result given as binding can be weak or reduced; the word gives no strength. For some of these results: Tags and fused reporters may be left off the sequences shown. Values belong to the molecule of their own block, whether it stands above or below them.

Columns and labels:
Flag-tagged UBF (mouse) = biological target: T1, Flag-tagged UBF (mouse) (UniProt P25976); test: co-IP; GFP tagged CTCF deletion mutants co-expressed with Flag tagged UBF in HEK293T cells; Flag pull-down (IP), detection with an antibody against GFP
T1 sequence: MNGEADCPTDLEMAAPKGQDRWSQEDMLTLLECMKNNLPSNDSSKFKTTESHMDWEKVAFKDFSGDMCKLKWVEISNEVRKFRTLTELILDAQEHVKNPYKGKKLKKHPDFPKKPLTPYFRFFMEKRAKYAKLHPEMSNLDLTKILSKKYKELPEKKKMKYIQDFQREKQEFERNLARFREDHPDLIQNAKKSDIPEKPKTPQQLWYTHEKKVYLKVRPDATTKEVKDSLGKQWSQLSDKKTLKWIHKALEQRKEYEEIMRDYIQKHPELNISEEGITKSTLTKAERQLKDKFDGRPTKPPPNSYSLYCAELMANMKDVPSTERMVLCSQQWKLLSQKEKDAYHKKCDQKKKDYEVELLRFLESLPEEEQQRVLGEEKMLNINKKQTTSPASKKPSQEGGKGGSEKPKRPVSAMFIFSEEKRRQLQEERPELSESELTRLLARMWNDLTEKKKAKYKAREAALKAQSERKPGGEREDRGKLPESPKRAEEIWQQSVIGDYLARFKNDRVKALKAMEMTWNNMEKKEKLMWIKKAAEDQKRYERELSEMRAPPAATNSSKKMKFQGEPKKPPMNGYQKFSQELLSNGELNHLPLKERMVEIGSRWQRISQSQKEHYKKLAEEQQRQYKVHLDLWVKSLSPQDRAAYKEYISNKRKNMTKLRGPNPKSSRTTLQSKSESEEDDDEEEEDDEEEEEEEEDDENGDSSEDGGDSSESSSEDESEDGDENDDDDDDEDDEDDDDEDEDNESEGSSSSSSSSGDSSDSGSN

[1] = biological target: GST-tagged zinc finger (ZF) domain of CTCF (construct 1) (not stated (mouse or chicken cDNA cloned)); test: pull-down; GST fusion proteins from bacteria incubated with ES cell nuclear extracts; binding under low-salt conditions, washing more stringent; western blot with anti-UBF; only the target purified
[2] = biological target: GST-tagged zinc finger (ZF) domain of CTCFL (construct 5) (mouse); test: as above

binding (Flag-tagged UBF (mouse)): binds
Molecule: GFP tagged CTCF deletion mutant with the C-terminal zinc fingers (domain or fragment)

binding (Flag-tagged UBF (mouse)): binds
Molecule: GFP tagged CTCF deletion mutant with the N-terminal zinc fingers (domain or fragment)

binding [1]: binds
binding [2]: binds
B1: upstream binding factor (UBF) (protein, UniProt P25976-2 1-728)
chain: MNGEADCPTDLEMAAPKGQDRWSQEDMLTLLECMKNNLPSNDSSKFKTTESHMDWEKVAFKDFSGDMCKLKWVEISNEVRKFRTLTELILDAQEHVKNPYKGKKLKKHPDFPKKPLTPYFRFFMEKRAKYAKLHPEMSNLDLTKILSKKYKELPEKKKMKYIQDFQREKQEFERNLARFREDHPDLIQNAKKSDIPEKPKTPQQLWYTHEKKVYLKVRPDEIMRDYIQKHPELNISEEGITKSTLTKAERQLKDKFDGRPTKPPPNSYSLYCAELMANMKDVPSTERMVLCSQQWKLLSQKEKDAYHKKCDQKKKDYEVELLRFLESLPEEEQQRVLGEEKMLNINKKQTTSPASKKPSQEGGKGGSEKPKRPVSAMFIFSEEKRRQLQEERPELSESELTRLLARMWNDLTEKKKAKYKAREAALKAQSERKPGGEREDRGKLPESPKRAEEIWQQSVIGDYLARFKNDRVKALKAMEMTWNNMEKKEKLMWIKKAAEDQKRYERELSEMRAPPAATNSSKKMKFQGEPKKPPMNGYQKFSQELLSNGELNHLPLKERMVEIGSRWQRISQSQKEHYKKLAEEQQRQYKVHLDLWVKSLSPQDRAAYKEYISNKRKNMTKLRGPNPKSSRTTLQSKSESEEDDDEEEEDDEEEEEEEEDDENGDSSEDGGDSSESSSEDESEDGDENDDDDDDEDDEDDDDEDEDNESEGSSSSSSSSGDSSDSGSN
